Laboratory results reported in the supplement of paper PMC11546906.
Structures can show the parent of a compound that is named as a salt. The list shows a part of the results. Single values are uncertain here, since repeats match poorly.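 Screen of FDA-approved drugs, each combined with colistin at one-eighth of its MIC, against a multidrug-resistant mcr-1-positive clinical E. coli isolate; growth read as OD600 after 24 h. Bacteria without drug were the growth control and plain broth the blank. A combination counted as active when OD600 fell below 0.2.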

Tested on: Escherichia coli 42 (mcr-1-positive clinical isolate)
Assay: OD600 after 24 h growth with compound plus colistin (absorbance units (OD600)); higher = more bacterial growth (less inhibition)
Settings: first compound 25 µM; colistin concentration 0.5 ug/mL; incubation time 24 h; 37 °C

Structure (SMILES) | OD600
CC(=O)OCC(=O)[C@@]1(O)CC[C@H]2[C@@H]3CCC4=CC(=O)CC[C@]4(C)[C@H]3C(=O)C[C@@]21C [Cortisone acetate] + CCC(C)CCCC(=O)N[C@@H](CCN)C(=O)N[C@H](C(=O)N[C@@H](CCN)C(=O)N[C@H]1CCNC(=O)[C@H]([C@@H](C)O)NC(=O)[C@H](CCN)NC(=O)[C@H](CCN)NC(=O)[C@H](CC(C)C)NC(=O)[C@@H](CC(C)C)NC(=O)[C@H](CCN)NC1=O)[C@@H](C)O [colistin] | inactive: 0.97
COC(=O)C1=C(C)NC(C)=C(C(=O)OC(C)C)C1c1cccc2nonc12 (stereo not drawn) [Isradipine] + CCC(C)CCCC(=O)N[C@@H](CCN)C(=O)N[C@H](C(=O)N[C@@H](CCN)C(=O)N[C@H]1CCNC(=O)[C@H]([C@@H](C)O)NC(=O)[C@H](CCN)NC(=O)[C@H](CCN)NC(=O)[C@H](CC(C)C)NC(=O)[C@@H](CC(C)C)NC(=O)[C@H](CCN)NC1=O)[C@@H](C)O [colistin] | inactive: 1.08
CO[C@H]1/C=C/O[C@@]2(C)Oc3c(C)c(O)c4c(O)c(c(/C=N/N5CCN(C6CCCC6)CC5)c(O)c4c3C2=O)NC(=O)/C(C)=C\C=C\[C@H](C)[C@H](O)[C@@H](C)[C@@H](O)[C@@H](C)[C@H](OC(C)=O)[C@@H]1C [Rifapentine] + CCC(C)CCCC(=O)N[C@@H](CCN)C(=O)N[C@H](C(=O)N[C@@H](CCN)C(=O)N[C@H]1CCNC(=O)[C@H]([C@@H](C)O)NC(=O)[C@H](CCN)NC(=O)[C@H](CCN)NC(=O)[C@H](CC(C)C)NC(=O)[C@@H](CC(C)C)NC(=O)[C@H](CCN)NC1=O)[C@@H](C)O [colistin] | active: 0.043
N[C@@H](Cc1cc(I)c(Oc2ccc(O)c(I)c2)c(I)c1)C(=O)O [Liothyronine sodium] + CCC(C)CCCC(=O)N[C@@H](CCN)C(=O)N[C@H](C(=O)N[C@@H](CCN)C(=O)N[C@H]1CCNC(=O)[C@H]([C@@H](C)O)NC(=O)[C@H](CCN)NC(=O)[C@H](CCN)NC(=O)[C@H](CC(C)C)NC(=O)[C@@H](CC(C)C)NC(=O)[C@H](CCN)NC1=O)[C@@H](C)O [colistin] | inactive: 1.04
CN(C)CCC=C1c2ccccc2C=Cc2ccccc21 [Cyclobenzaprine hydrochloride] + CCC(C)CCCC(=O)N[C@@H](CCN)C(=O)N[C@H](C(=O)N[C@@H](CCN)C(=O)N[C@H]1CCNC(=O)[C@H]([C@@H](C)O)NC(=O)[C@H](CCN)NC(=O)[C@H](CCN)NC(=O)[C@H](CC(C)C)NC(=O)[C@@H](CC(C)C)NC(=O)[C@H](CCN)NC1=O)[C@@H](C)O [colistin] | inactive: 0.793
Cn1cnc([N+](=O)[O-])c1Sc1ncnc2[nH]cnc12 [Azathioprine] + CCC(C)CCCC(=O)N[C@@H](CCN)C(=O)N[C@H](C(=O)N[C@@H](CCN)C(=O)N[C@H]1CCNC(=O)[C@H]([C@@H](C)O)NC(=O)[C@H](CCN)NC(=O)[C@H](CCN)NC(=O)[C@H](CC(C)C)NC(=O)[C@@H](CC(C)C)NC(=O)[C@H](CCN)NC1=O)[C@@H](C)O [colistin] | inactive: 1.17
C=CC[C@@H]1/C=C(\C)C[C@H](C)C[C@H](OC)[C@H]2O[C@@](O)(C(=O)C(=O)N3CCCC[C@H]3C(=O)O[C@H](/C(C)=C/[C@@H]3CC[C@@H](O)[C@H](OC)C3)[C@H](C)[C@@H](O)CC1=O)[C@H](C)C[C@@H]2OC [Tacrolimus] + CCC(C)CCCC(=O)N[C@@H](CCN)C(=O)N[C@H](C(=O)N[C@@H](CCN)C(=O)N[C@H]1CCNC(=O)[C@H]([C@@H](C)O)NC(=O)[C@H](CCN)NC(=O)[C@H](CCN)NC(=O)[C@H](CC(C)C)NC(=O)[C@@H](CC(C)C)NC(=O)[C@H](CCN)NC1=O)[C@@H](C)O [colistin] | inactive: 0.906
O=C(c1ccc(OCCN2CCCCC2)cc1)c1c(-c2ccc(O)cc2)sc2cc(O)ccc12 [Raloxifene hydrochloride] + CCC(C)CCCC(=O)N[C@@H](CCN)C(=O)N[C@H](C(=O)N[C@@H](CCN)C(=O)N[C@H]1CCNC(=O)[C@H]([C@@H](C)O)NC(=O)[C@H](CCN)NC(=O)[C@H](CCN)NC(=O)[C@H](CC(C)C)NC(=O)[C@@H](CC(C)C)NC(=O)[C@H](CCN)NC1=O)[C@@H](C)O [colistin] | inactive: 0.879
CCCc1nc2c(C)cc(-c3nc4ccccc4n3C)cc2n1Cc1ccc(-c2ccccc2C(=O)O)cc1 [Telmisartan] + CCC(C)CCCC(=O)N[C@@H](CCN)C(=O)N[C@H](C(=O)N[C@@H](CCN)C(=O)N[C@H]1CCNC(=O)[C@H]([C@@H](C)O)NC(=O)[C@H](CCN)NC(=O)[C@H](CCN)NC(=O)[C@H](CC(C)C)NC(=O)[C@@H](CC(C)C)NC(=O)[C@H](CCN)NC1=O)[C@@H](C)O [colistin] | inactive: 0.788
O=C(/C=C/n1cnc(-c2cc(C(F)(F)F)cc(C(F)(F)F)c2)n1)NNc1cnccn1 + CCC(C)CCCC(=O)N[C@@H](CCN)C(=O)N[C@H](C(=O)N[C@@H](CCN)C(=O)N[C@H]1CCNC(=O)[C@H]([C@@H](C)O)NC(=O)[C@H](CCN)NC(=O)[C@H](CCN)NC(=O)[C@H](CC(C)C)NC(=O)[C@@H](CC(C)C)NC(=O)[C@H](CCN)NC1=O)[C@@H](C)O [colistin] | inactive: 0.941
COc1nc2ccc(Br)cc2cc1[C@@H](c1ccccc1)[C@@](O)(CCN(C)C)c1cccc2ccccc12 [Bedaquiline] + CCC(C)CCCC(=O)N[C@@H](CCN)C(=O)N[C@H](C(=O)N[C@@H](CCN)C(=O)N[C@H]1CCNC(=O)[C@H]([C@@H](C)O)NC(=O)[C@H](CCN)NC(=O)[C@H](CCN)NC(=O)[C@H](CC(C)C)NC(=O)[C@@H](CC(C)C)NC(=O)[C@H](CCN)NC1=O)[C@@H](C)O [colistin] | inactive: 0.947
CC(=O)[C@@]1(O)CC[C@H]2[C@@H]3CCC4=CC(=O)CC[C@]4(C)[C@H]3CC[C@@]21C [17α-Hydroxyprogesterone] + CCC(C)CCCC(=O)N[C@@H](CCN)C(=O)N[C@H](C(=O)N[C@@H](CCN)C(=O)N[C@H]1CCNC(=O)[C@H]([C@@H](C)O)NC(=O)[C@H](CCN)NC(=O)[C@H](CCN)NC(=O)[C@H](CC(C)C)NC(=O)[C@@H](CC(C)C)NC(=O)[C@H](CCN)NC1=O)[C@@H](C)O [colistin] | inactive: 1.13
COC(=O)C1=C(C)NC(C)=C(C(=O)OCCN(C)Cc2ccccc2)C1c1cccc([N+](=O)[O-])c1 (stereo not drawn) [Nicardipine] + CCC(C)CCCC(=O)N[C@@H](CCN)C(=O)N[C@H](C(=O)N[C@@H](CCN)C(=O)N[C@H]1CCNC(=O)[C@H]([C@@H](C)O)NC(=O)[C@H](CCN)NC(=O)[C@H](CCN)NC(=O)[C@H](CC(C)C)NC(=O)[C@@H](CC(C)C)NC(=O)[C@H](CCN)NC1=O)[C@@H](C)O [colistin] | inactive: 1.01
COc1cc2c(cc1Cc1cccc(Cl)c1F)c(=O)c(C(=O)O)cn2[C@H](CO)C(C)C [Elvitegravir] + CCC(C)CCCC(=O)N[C@@H](CCN)C(=O)N[C@H](C(=O)N[C@@H](CCN)C(=O)N[C@H]1CCNC(=O)[C@H]([C@@H](C)O)NC(=O)[C@H](CCN)NC(=O)[C@H](CCN)NC(=O)[C@H](CC(C)C)NC(=O)[C@@H](CC(C)C)NC(=O)[C@H](CCN)NC1=O)[C@@H](C)O [colistin] | inactive: 0.87
OCCN1C[C@H](O)[C@@H](O)[C@H](O)[C@H]1CO [Miglitol] + CCC(C)CCCC(=O)N[C@@H](CCN)C(=O)N[C@H](C(=O)N[C@@H](CCN)C(=O)N[C@H]1CCNC(=O)[C@H]([C@@H](C)O)NC(=O)[C@H](CCN)NC(=O)[C@H](CCN)NC(=O)[C@H](CC(C)C)NC(=O)[C@@H](CC(C)C)NC(=O)[C@H](CCN)NC1=O)[C@@H](C)O [colistin] | inactive: 0.844
O=C1O[C@H]([C@@H](O)CO)C(O)=C1O [L-Ascorbic acid] + CCC(C)CCCC(=O)N[C@@H](CCN)C(=O)N[C@H](C(=O)N[C@@H](CCN)C(=O)N[C@H]1CCNC(=O)[C@H]([C@@H](C)O)NC(=O)[C@H](CCN)NC(=O)[C@H](CCN)NC(=O)[C@H](CC(C)C)NC(=O)[C@@H](CC(C)C)NC(=O)[C@H](CCN)NC1=O)[C@@H](C)O [colistin] | inactive: 0.653
COc1ccc2[nH]c([S@@+]([O-])Cc3ncc(C)c(OC)c3C)nc2c1 [Esomeprazole Sodium] + CCC(C)CCCC(=O)N[C@@H](CCN)C(=O)N[C@H](C(=O)N[C@@H](CCN)C(=O)N[C@H]1CCNC(=O)[C@H]([C@@H](C)O)NC(=O)[C@H](CCN)NC(=O)[C@H](CCN)NC(=O)[C@H](CC(C)C)NC(=O)[C@@H](CC(C)C)NC(=O)[C@H](CCN)NC1=O)[C@@H](C)O [colistin] | inactive: 1.09
Clc1cccc(Cl)c1NC1=NCCN1 [Clonidine hydrochloride] + CCC(C)CCCC(=O)N[C@@H](CCN)C(=O)N[C@H](C(=O)N[C@@H](CCN)C(=O)N[C@H]1CCNC(=O)[C@H]([C@@H](C)O)NC(=O)[C@H](CCN)NC(=O)[C@H](CCN)NC(=O)[C@H](CC(C)C)NC(=O)[C@@H](CC(C)C)NC(=O)[C@H](CCN)NC1=O)[C@@H](C)O [colistin] | inactive: 1.03

In a second layout: results already given

| Structure (SMILES) | OD600 |
| --- | --- |
| O=C(c1ccc(OCCN2CCCCC2)cc1)c1c(-c2ccc(O)cc2)sc2cc(O)ccc12 [Raloxifene hydrochloride] + CCC(C)CCCC(=O)N[C@@H](CCN)C(=O)N[C@H](C(=O)N[C@@H](CCN)C(=O)N[C@H]1CCNC(=O)[C@H]([C@@H](C)O)NC(=O)[C@H](CCN)NC(=O)[C@H](CCN)NC(=O)[C@H](CC(C)C)NC(=O)[C@@H](CC(C)C)NC(=O)[C@H](CCN)NC1=O)[C@@H](C)O [colistin] | inactive: 0.879 |
| CCCc1nc2c(C)cc(-c3nc4ccccc4n3C)cc2n1Cc1ccc(-c2ccccc2C(=O)O)cc1 [Telmisartan] + CCC(C)CCCC(=O)N[C@@H](CCN)C(=O)N[C@H](C(=O)N[C@@H](CCN)C(=O)N[C@H]1CCNC(=O)[C@H]([C@@H](C)O)NC(=O)[C@H](CCN)NC(=O)[C@H](CCN)NC(=O)[C@H](CC(C)C)NC(=O)[C@@H](CC(C)C)NC(=O)[C@H](CCN)NC1=O)[C@@H](C)O [colistin] | inactive: 0.788 |
